From patent US11142543B2 (priority 2016, dated 2021)
Marks after values point to notes of the source that are not given here.

Test system: ICR mice with ethanol-induced memory reproduction disorder
Settings: i.g. once a day for three consecutive weeks, donepezil 1.6 mg/kg, C-49 15 mg/kg, n = 10
Experimental: Learning memory is an advanced function of the human and animal brains.
Before the retesting after training, the ethanol solution was administered to the mouse to block the memory reproduction process of the animal, resulting in memory reproduction disorder.
Male ICR mice, 16-18 g, were purchased from Shanghai Sippr-BK laboratory animal Co. Ltd.
40 male mice were randomly divided into 4 groups by Excel, and each group contained 10 animals. The mice in group 1 (blank group) and mice in group 2 (model group) were orally administered (i.g.) with drinking water daily.
After 3 weeks of administration, 1 hour after the last administration, the exercise was performed once in the dark avoidance method. The mice were placed in a dark avoidance box, and placed in the bright room with the back facing the hole. At the same time, the video analysis device was activated, and the animal passed through the hole into the dark room and received an electric shock, and the timing was automatically stopped. The mice were removed and the screen analysis would record the time required for each mouse to experience an electric shock from the bright room to the dark room, which was the latency period. After 24 h, the test was carried out, and 45% ethanol solution (0.1 ml/10 g) was orally administered 30 min before the test. The video analysis system would automatically record all relevant data of the animal. Data were expressed as mean standard deviation (x±s), and data difference statistics were analyzed by one-way variance (ANOVA) or X^2 test. The difference between groups was judged by P<0.05.

With `COc1cc2c(cc1OC)C(=O)C(CC1CCN(Cc3ccccc3)CC1)C2` (stereo not drawn) [donepezil, reference compound] the “Number of shocked animals” value was 2*, the “Total number of errors (within 5 min)” value was 6 and the “Latency period from an open room to a dark room” value (x ± s) was 220.1 ± 130.5 s.
